Patent publication US20080182822A1, “Liquid Pharmaceutical Compositions Comprising a Bisphosphonate Compound” (Besins Healthcare SA, priority 2006, published 2008)
“And” between values parts separate entries of the source, which are not always exact repeats. Equal entries are not always repeated. Where two headings read alike, the source gives them in different places.

Columns and labels:
[1] = rat, published data, Lin et al. 1999; cited from earlier work
[2] = rat
[3] = In vitro dermal absorption, static diffusion cell (Franz cell)
[4] = buffered solution, compared to 100% phosphate buffer solution, FIG. 10 / FIG. 11

Structure (SMILES) | urinary recovery after IV administration [1] [%] | Urinary Excretion, Total Excretion (% of Dose), 0-168 hours ([2]; dermal 1.9 mg (Group 2), Mean) | effect of glycerine on the amount recovered in the receptor fluid and the dermis ([3]; FIG. 12 / FIG. 13) | effect of propylene glycol (PG) on the amount recovered [3, 4] | effect of urea on the amount recovered in the receptor fluid and the skin/dermis [3, 4] | effect of the alcohol content in the formulation on the percentage of absorption ([3]; ethanol/water versus pure aqueous compositions, FIG. 4) | in vitro absorption in rats versus in humans ([3]; higher in rats than in humans) [fold] | effect of menthol on the amount recovered in the receptor fluid and dermis ([3]; menthol at 90% of saturating concentration in 90/10 phosphate buffer/ethanol, compared to pure phosphate buffer solution, FIG. 6 / FIG. 7) | recovery in the receptor fluid and the dermis at 24 hrs (crossing of the skin) ([3]; water/alcohol compositions, FIG. 1 / FIG. 2) | effect of the increase in alcohol content on absorption, as percentage of the dose applied ([3]; water/alcohol ratios, FIG. 1 / FIG. 2) | Urinary Excretion, Total Excretion (% of Dose), 0-168 hours ([2]; dermal 1.9 mg (Group 2), individual animals) | Urinary Excretion, Total Excretion (% of Dose), 0-168 hours ([2]; in vivo, iv, 0.2 mg/kg) | Urinary Excretion, Total Excretion (% of Dose), 0-168 hours ([2]; intravenous 0.2 mg/kg (Group 1), individual animals, 0.2 mg/kg)
NCCCC(O)(P(=O)(O)O)P(=O)(O)O [alendronate, 4-amino-1-hydroxybutylidene-1,1-bisphosphonic acid] | 36 | 0.4 % of Dose | neutral effect | tends to reduce | neutral effect | does not detrimentally affect | 10 | does not increase | does cross the skin | not significantly modified | – | – | –
NCCCC(O)(P(=O)(O)O)P(=O)(O)O [14C-alendronate] | – | – | – | – | – | – | – | – | – | – | 0.48% of Dose and 0.22% of Dose and 0.24% of Dose and 0.19% of Dose and 0.62% of Dose | 10.1% of Dose | 4.4% of Dose and 6.5% of Dose
